These are yes or no findings as the source states them, for the method shown. Binding seen in cells or lysates may run through a third protein. Some results given as binding are weak or reduced against the parent protein; the word gives no strength. Tags and fused reporters may be left off the sequences shown.
Target: T1, Stay-green protein (OsSGR), cYFP fusion (rice (Oryza sativa L.)) (UniProt Q652K1)
T1 sequence: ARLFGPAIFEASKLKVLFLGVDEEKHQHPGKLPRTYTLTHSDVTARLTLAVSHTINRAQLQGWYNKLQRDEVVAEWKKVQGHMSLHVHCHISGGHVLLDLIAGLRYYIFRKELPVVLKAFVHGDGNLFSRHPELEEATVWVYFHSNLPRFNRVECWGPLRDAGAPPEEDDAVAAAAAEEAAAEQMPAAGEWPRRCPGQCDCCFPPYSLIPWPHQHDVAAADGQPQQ
Assay: split reporter; BiFC in onion epidermal cells; nEYFP and cEYFP fusion plasmids mixed 1:1 and co-bombarded; 16-24 h at 22 °C in the dark in MS liquid media; confocal microscopy; also after 200 mM NaCl for 30 min

By UniProt entry, the sequences of proteins in these tests, tags left out.
UniProt Q6L4F8: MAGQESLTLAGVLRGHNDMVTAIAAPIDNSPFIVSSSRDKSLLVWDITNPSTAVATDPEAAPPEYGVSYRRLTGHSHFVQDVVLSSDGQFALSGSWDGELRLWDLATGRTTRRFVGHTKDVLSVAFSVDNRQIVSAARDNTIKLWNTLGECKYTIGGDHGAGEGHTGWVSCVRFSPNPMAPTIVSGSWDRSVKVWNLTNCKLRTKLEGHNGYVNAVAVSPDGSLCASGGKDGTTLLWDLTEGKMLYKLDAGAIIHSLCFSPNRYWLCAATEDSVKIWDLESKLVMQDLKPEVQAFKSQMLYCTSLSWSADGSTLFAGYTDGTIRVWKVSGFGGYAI

binding: binds
Substance: Receptor for Activated C Kinase1B (OsRACK1B), nYFP fusion (from UniProt Q6L4F8 1-336)
